# Measurements from US20140121272A1, “DEODORIZATION OF PEROXYCARBOXYLIC ACIDS USING CHAOTROPIC AGENTS” (ECOLAB USA INC., priority 2012, published 2014).
# Assays:
# [1] = Thirty day odor reduction at about 40° C. of Oxonia Active with candidate odor removal agents, tested by nose
# [2] = Odor removal from concentrated peracetic acid product (Oxonia Active) with dissolved additive, odor observed; conditions: non-detectable odors listed as none (same odor as water)
# [3] = about 50 g Oxonia Active (about 5.5% peracetic acid, 28% hydrogen peroxide) plus additive, thirty days in oven at about 40° C., tested by nose, * pre-neutralized with acetic acid
Compound,Odor Reduction [1],"Odor Reduction [1, 3]",also measured
O=S(=O)([O-])[O-].[Na+].[Na+] [Sodium Sulfate],No,,
Aminomonopropanol,,No,
NC(N)=O [Urea],,Yes,Odor ([2]; molar POAA/additive 0.5/1): None; Odor ([2]; molar POAA/additive 1/0.25): None; Odor ([2]; molar POAA/additive 1/0.50): None; Odor ([2]; molar POAA/additive 1/1): None
N.N.O=S(=O)(O)O [Ammonium Sulfate],Yes,,
NCCO [Ethanolamine],,Yes,
CC(=O)[O-].O.O.O.[Na+] [Sodium Acetate (Trihydrate)],No,,
OCCNCCO [Diethanolamine],,Yes,
CC(=O)O.CC(=O)O.NCCN [Ethylene Diamine Diacetate],,No,
CC(=O)O.N [Ammonium Acetate],Yes,,

# Like-named read-outs stand apart in the source and are kept apart here.
